From the supplement of paper PMC10849652
The list shows a part of the results.

The chains behind the UniProt entries cited, without tags or fusion partners. Where a name states a change or a piece, a line headed by the entry shows the natural chain unless it says otherwise.
UniProt P55345: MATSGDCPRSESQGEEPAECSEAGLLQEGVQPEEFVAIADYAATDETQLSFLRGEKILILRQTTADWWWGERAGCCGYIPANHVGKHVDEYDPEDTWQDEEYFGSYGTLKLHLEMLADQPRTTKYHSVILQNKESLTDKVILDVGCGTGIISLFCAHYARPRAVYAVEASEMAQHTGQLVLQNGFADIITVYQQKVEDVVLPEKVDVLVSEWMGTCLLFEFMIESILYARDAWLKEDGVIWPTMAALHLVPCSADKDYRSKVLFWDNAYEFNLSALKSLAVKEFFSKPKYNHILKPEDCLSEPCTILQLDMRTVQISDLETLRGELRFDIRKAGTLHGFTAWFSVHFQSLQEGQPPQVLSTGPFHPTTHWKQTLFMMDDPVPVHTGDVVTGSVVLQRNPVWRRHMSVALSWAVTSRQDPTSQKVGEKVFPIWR
UniProt Q5H9R7: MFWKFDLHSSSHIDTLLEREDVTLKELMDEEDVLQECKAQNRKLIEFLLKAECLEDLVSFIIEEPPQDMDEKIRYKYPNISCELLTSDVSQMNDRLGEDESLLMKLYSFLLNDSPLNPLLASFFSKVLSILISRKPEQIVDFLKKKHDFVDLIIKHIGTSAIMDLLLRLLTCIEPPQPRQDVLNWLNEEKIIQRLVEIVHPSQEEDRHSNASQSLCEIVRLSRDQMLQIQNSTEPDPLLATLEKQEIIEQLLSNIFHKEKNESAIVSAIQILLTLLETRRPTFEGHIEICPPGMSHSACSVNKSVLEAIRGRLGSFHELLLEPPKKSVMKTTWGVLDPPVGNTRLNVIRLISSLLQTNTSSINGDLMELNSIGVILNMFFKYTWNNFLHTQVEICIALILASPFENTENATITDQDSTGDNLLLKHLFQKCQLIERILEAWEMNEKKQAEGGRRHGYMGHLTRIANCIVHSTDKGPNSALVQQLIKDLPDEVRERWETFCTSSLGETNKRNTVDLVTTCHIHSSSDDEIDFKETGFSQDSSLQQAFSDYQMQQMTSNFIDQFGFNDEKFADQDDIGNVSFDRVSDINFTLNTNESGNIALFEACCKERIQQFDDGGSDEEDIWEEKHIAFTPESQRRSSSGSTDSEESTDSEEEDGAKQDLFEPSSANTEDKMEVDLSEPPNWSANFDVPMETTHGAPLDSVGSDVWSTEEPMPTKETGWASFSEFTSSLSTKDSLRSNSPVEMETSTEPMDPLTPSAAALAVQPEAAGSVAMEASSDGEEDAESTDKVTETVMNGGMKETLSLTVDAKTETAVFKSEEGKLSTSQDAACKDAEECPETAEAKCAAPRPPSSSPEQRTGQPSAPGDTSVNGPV
UniProt Q8TAE6: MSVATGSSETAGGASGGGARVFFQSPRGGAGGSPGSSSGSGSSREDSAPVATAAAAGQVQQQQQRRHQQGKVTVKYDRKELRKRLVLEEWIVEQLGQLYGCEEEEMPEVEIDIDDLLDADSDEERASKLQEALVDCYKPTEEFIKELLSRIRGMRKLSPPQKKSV
UniProt O60678: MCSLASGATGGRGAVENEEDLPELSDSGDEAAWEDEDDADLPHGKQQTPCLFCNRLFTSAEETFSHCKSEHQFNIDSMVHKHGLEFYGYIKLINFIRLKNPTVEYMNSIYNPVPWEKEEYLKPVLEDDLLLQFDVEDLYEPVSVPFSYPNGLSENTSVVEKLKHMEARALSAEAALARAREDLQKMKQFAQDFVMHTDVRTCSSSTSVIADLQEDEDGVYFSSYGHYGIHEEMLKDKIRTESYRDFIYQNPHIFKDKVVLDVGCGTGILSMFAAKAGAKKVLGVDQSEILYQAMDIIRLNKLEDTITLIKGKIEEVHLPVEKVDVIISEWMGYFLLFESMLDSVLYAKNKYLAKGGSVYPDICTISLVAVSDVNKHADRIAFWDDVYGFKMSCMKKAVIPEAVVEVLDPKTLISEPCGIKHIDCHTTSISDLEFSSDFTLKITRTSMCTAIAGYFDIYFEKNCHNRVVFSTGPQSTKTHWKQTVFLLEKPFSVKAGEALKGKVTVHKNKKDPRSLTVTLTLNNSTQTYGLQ
UniProt Q9Y570: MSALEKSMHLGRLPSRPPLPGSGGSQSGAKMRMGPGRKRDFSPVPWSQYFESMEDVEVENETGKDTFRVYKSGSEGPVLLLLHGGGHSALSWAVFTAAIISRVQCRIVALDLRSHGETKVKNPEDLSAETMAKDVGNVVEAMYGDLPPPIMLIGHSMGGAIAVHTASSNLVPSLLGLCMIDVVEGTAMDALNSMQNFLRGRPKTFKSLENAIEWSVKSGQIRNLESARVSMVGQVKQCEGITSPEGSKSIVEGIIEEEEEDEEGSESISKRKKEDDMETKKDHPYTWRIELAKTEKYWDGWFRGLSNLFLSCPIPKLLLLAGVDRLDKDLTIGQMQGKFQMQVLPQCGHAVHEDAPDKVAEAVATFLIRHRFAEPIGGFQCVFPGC
UniProt Q8WY54: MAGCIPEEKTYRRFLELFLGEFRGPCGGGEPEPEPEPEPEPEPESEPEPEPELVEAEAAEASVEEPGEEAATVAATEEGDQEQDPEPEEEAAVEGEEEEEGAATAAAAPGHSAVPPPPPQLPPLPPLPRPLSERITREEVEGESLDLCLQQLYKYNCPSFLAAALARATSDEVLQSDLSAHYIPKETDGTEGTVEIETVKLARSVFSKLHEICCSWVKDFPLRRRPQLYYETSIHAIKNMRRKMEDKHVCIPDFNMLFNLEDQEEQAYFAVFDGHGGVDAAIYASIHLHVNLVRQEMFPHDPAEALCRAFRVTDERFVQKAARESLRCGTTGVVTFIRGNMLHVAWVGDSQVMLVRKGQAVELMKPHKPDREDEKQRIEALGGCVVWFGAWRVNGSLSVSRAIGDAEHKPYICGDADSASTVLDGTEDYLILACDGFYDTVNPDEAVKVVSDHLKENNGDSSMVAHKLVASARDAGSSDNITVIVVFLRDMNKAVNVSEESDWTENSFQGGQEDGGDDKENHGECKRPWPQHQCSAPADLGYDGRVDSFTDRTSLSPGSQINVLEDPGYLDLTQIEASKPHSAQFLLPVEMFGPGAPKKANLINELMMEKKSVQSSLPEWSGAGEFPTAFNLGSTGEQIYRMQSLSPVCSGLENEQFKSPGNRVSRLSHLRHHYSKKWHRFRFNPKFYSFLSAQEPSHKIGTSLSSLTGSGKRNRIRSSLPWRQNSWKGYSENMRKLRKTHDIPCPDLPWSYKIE
UniProt Q96QC0: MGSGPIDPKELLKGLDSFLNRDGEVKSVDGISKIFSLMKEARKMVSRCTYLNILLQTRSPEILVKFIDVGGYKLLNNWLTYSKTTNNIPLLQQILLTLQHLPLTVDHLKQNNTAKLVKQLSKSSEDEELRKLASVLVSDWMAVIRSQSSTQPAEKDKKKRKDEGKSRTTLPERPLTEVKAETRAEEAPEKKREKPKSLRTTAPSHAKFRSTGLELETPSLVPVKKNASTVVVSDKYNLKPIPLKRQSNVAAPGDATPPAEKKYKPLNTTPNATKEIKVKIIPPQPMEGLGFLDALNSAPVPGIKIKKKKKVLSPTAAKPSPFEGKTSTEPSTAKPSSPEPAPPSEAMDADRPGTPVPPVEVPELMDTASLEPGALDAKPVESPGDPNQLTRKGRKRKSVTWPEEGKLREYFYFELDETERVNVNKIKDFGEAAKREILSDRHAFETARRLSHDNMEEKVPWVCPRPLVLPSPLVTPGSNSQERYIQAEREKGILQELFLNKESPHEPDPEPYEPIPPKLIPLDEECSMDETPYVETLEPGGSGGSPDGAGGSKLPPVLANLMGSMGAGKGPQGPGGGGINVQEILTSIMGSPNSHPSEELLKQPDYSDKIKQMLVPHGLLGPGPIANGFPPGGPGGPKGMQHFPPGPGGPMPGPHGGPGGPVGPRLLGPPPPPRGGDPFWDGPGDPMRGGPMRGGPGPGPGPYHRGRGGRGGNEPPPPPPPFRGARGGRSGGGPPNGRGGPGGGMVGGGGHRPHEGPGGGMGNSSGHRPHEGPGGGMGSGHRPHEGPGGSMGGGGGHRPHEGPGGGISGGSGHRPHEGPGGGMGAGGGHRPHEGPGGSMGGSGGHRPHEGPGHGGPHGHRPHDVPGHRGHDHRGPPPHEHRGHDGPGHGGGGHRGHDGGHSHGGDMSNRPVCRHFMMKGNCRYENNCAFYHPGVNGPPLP
UniProt P14314: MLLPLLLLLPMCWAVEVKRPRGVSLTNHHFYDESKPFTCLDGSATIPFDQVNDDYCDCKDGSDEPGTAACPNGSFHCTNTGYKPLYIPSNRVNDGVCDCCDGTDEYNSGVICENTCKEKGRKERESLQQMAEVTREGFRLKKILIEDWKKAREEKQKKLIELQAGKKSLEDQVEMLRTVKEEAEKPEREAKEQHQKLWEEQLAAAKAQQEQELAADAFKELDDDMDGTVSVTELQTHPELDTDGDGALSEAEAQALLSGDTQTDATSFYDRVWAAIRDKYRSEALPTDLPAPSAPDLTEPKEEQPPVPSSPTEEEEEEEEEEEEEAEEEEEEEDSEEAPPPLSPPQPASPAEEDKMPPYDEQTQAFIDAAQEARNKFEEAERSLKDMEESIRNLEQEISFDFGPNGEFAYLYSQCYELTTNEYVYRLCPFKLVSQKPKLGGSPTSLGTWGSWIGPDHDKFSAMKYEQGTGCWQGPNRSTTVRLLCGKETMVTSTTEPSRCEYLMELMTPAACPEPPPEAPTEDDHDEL
UniProt P63098, whole entry, looked up: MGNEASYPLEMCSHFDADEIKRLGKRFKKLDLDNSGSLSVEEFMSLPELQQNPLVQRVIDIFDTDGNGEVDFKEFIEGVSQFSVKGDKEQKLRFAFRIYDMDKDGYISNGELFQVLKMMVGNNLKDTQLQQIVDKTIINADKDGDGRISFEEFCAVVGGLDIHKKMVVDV
UniProt Q6NWY9: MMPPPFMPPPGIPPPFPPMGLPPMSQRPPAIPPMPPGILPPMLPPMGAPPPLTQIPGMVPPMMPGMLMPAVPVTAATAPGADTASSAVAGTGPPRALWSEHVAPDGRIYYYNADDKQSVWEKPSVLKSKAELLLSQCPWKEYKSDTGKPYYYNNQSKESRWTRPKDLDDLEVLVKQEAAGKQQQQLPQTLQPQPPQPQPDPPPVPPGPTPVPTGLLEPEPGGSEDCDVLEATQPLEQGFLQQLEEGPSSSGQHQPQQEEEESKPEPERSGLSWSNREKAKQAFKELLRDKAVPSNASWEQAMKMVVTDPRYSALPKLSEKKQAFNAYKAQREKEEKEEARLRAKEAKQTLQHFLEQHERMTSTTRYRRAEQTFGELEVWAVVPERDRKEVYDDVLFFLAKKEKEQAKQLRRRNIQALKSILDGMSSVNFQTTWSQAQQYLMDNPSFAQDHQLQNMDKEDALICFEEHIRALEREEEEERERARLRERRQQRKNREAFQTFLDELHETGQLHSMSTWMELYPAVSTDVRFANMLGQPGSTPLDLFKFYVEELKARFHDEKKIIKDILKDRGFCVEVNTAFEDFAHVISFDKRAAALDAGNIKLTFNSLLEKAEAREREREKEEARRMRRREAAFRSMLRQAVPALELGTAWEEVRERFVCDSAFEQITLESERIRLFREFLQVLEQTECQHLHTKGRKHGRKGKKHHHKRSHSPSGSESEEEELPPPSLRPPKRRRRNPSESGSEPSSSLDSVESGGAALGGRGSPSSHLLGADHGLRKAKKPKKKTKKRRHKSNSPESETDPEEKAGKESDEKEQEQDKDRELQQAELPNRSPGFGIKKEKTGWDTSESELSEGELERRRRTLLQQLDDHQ
UniProt Q13356: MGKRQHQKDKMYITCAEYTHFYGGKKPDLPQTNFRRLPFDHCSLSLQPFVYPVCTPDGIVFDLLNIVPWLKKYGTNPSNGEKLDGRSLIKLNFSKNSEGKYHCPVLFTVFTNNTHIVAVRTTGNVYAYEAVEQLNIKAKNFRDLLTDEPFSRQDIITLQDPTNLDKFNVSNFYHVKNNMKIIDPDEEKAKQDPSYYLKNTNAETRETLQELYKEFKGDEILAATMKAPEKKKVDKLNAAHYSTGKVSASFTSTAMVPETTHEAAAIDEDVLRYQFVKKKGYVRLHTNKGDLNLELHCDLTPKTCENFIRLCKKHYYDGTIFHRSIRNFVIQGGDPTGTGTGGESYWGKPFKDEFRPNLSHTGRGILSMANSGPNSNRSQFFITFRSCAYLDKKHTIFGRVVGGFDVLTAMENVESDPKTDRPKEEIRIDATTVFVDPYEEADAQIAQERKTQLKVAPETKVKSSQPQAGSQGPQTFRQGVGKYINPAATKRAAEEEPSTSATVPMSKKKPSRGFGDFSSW
UniProt Q9Y255: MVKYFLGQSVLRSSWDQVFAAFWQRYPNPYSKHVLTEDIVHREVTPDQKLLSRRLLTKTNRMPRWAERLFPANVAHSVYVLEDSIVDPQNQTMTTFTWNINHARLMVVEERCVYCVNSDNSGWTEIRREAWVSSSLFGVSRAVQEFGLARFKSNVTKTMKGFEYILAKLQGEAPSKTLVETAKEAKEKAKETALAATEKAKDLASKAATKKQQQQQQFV

Columns and labels:
Assay in all cases: log2 fold change, soluble protein after heating vs DMSO (PISA); higher = thermal stabilisation; K562 lysate, 10 uM; active = over 0.2 and 3.5 SD of the protein, either way, in both replicates (recomputed)
[1] = compound: O=C(CCCCCCC(=O)Nc1ccccc1)NO [vorinostat]
How it was run: (§1)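 K562 pellets were dounce-homogenised in PBS pH 7.4 containing 1 mM MgCl2, and the crude extract, at 1 mg/mL protein, was exposed to 10 μM compound for 30 min. Aliquots were heated for 3 min across 48°C-58°C, pooled, brought to 0.5% NP-40 at 4°C and spun at 21,000xg for 90 min, with the supernatant taken as soluble protein. TMTpro 16plex LC-MS/MS with equalised channel sums quantified that protein. Values are log-two fold changes in thermal stability relative to solvent controls, taken from duplicates.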

[2] = compound: O=C(O)c1ccc2c(c1)nc(Nc1cccc(Cl)c1)c1ccncc12 [silmitasertib]
How it was run: as §1

[3] = compound: NCC(=O)Nc1ccc(-n2nc(C(F)(F)F)cc2-c2ccc3c(ccc4ccccc43)c2)cc1
How it was run: as §1

[4] = compound: c1cn2cc(-c3ccc4cn[nH]c4c3)nc(Nc3ccc(N4CCOCC4)cc3)c2n1 [entospletinib]
How it was run: as §1

[5] = compound: O=C1NC(=O)C(c2cnc3ccccn23)=C1c1cn2c3c(cc(F)cc13)CN(C(=O)N1CCCCC1)CC2
How it was run: as §1

Target | log2 fold change [1] | log2 fold change [2] | log2 fold change [3] | log2 fold change [4] | log2 fold change [5]
PPP1R14A, A0A0B4J2A3 | inactive: 0.118 | inactive: -0.152 |  |  | 
PRMT2 (UniProt P55345) |  |  | inactive: 0.046 | inactive: -0.008 | 
PPP6R3 isoform 2 (UniProt Q5H9R7) | inactive: 0.265 | inactive: -0.008 |  |  | 
PPP1R14C (UniProt Q8TAE6) |  |  | inactive: -0.061 | inactive: -0.046 | 
PRMT3 (UniProt O60678) | inactive: -0.05 | inactive: 0 | inactive: 0.027 | inactive: 0.024 | inactive: -0.03
PPP2CB (UniProt E5RHC1) |  |  |  |  | inactive: -0.013
PPME1 (UniProt Q9Y570) | active: -0.673 | inactive: 0.185 |  | inactive: -0.063 | 
PPM1E (UniProt Q8WY54) | inactive: -0.019 | inactive: 0.007 | inactive: 0.008 | inactive: -0.01 | inactive: -0.1
PPP1R10 (UniProt Q96QC0) | inactive: -0.02 | inactive: -0.024 | inactive: 0.002 | inactive: -0.045 | inactive: -0.022
PPIP5K2 (UniProt H0Y9S9) | inactive: -0.332 | inactive: 0.054 | inactive: 0.005 | inactive: -0.251 | 
PRKCSH isoform 2 (UniProt P14314) | inactive: 0.126 | inactive: -0.057 | inactive: -0.046 | inactive: 0.037 | inactive: -0.019
PPP3R1 (UniProt P63098) | inactive: 0.137 | inactive: -0.006 | inactive: -0.019 | inactive: -0.019 | inactive: 0.023
PRKX (UniProt P51817) |  |  | inactive: -0.194 | inactive: -0.133 | 
PPP1R21 (UniProt Q6ZMI0) | inactive: -0.051 | inactive: 0.002 | inactive: -0.034 | inactive: 0.032 | inactive: 0.031
PRPF40B (UniProt Q6NWY9) |  |  |  |  | inactive: 0.01
PPIL2 (UniProt Q13356) | active: -0.32 | inactive: 0.019 | inactive: 0.015 | inactive: 0.014 | inactive: -0.009
PRELID1 (UniProt Q9Y255) |  |  | inactive: 0.107 |  | inactive: -0.024
PROSER3, A0A2R8Y8D9 |  |  |  |  | inactive: 0.022
PRDM10 isoform 6 (UniProt Q9NQV6) | inactive: -0.019 | inactive: -0.023 | inactive: 0.048 | inactive: 0.002 | 
PPL (UniProt O60437) |  |  |  | inactive: -0.039 | inactive: -0.03

Two records drawn at random from the list so far:
Target | log2 fold change [1] | log2 fold change [2] | log2 fold change [3] | log2 fold change [4] | log2 fold change [5]
PRKX (UniProt P51817) |  |  | inactive: -0.194 | inactive: -0.133 | 
PRMT2 (UniProt P55345) |  |  | inactive: 0.046 | inactive: -0.008 | 
